# Numbering of substitutions follows the chain as printed.
# Sequences of proteins named here, by UniProt entry; tags and fusion partners are left off. Residues count along the entry.
# UniProt P05231, 30-212 limits assumed: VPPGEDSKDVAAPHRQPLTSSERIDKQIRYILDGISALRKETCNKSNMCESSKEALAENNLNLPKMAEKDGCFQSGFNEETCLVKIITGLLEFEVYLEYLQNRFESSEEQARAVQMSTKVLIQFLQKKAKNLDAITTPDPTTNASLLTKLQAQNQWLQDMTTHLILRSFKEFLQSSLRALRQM
# B1: Z11433 (designed binder)
# chain: AQHDEALEVDAKYAKEERKAWYEIHLLPNLTVDQMAAFISKLFDDPSQSSELLSEAKKLNDSQAPKVDYVLAEAKVLANRELDKYGVSDYYKNLINNAKTVEGVKALIDEILAALPYVPG
# notes: domain: GA3; periplasmic ABD fusion
# B2: Z11213 (designed binder)
# chain: B1 chain with K19E, L26V, D33S, M35I
# notes: as for B1
# B3: Z11214 (designed binder)
# chain: B1 chain with K19T, Y22F, L26T, D33E
# notes: as for B1
# B4: Z11215 (designed binder)
# chain: B1 chain with R18A, K19E, Y22W, D33S
# notes: as for B1
# B5: Z11217 (designed binder)
# chain: B1 chain with K19E, D33E
# notes: as for B1
# B6: Z11222 (designed binder)
# chain: B1 chain with K19D, V32I
# notes: as for B1
# B7: Z11251 (designed binder)
# chain: B1 chain with Y22F, L26A
# notes: as for B1
# B8: Z11277 (designed binder)
# chain: B1 chain with R18A, Y22F, L26A, D33E
# notes: as for B1
# B9: Z11278 (designed binder)
# chain: B1 chain with K19T, L26I, D33S
# notes: as for B1
# B10: Z11283 (designed binder)
# chain: B1 chain with R18Q, K19Q, Y22T, L26S
# notes: as for B1
# B11: Z11300 (designed binder)
# chain: B1 chain with K19D, D33E, M35I
# notes: as for B1
# B12: Z11321 (designed binder)
# chain: B1 chain with K19V, V32I, D33T
# notes: as for B1
# B13: Z11329 (designed binder)
# chain: B1 chain with K19Q, D33Q
# notes: as for B1
# B14: Z11351 (designed binder)
# chain: B1 chain with R18A, K19S, Y22F, L26T, D33Q
# notes: as for B1
# B15: Z11380 (designed binder)
# chain: B1 chain with K19E, L26V
# notes: as for B1
# B16: Z11384 (designed binder)
# chain: B1 chain with D33N
# notes: as for B1
# B17: Z11472 (designed binder)
# chain: B1 chain with R18A, K19R, Y22H, L26I, D33S, M35I
# notes: as for B1
# B18: Z11552 (designed binder)
# chain: B1 chain with K19A
# notes: as for B1
# B19: Z11642 (designed binder)
# chain: B1 chain with K19Q, L26T, V32A, D33E
# notes: as for B1
# B20: Z11644 (designed binder)
# chain: B1 chain with K19Q, Y22F, L26A
# notes: as for B1
# B21: Z11674 (designed binder)
# chain: B1 chain with R18A, K19R, Y22R, D33Q
# notes: as for B1
# B22: Z11698 (designed binder)
# chain: B1 chain with R18A, Y22R, D33T
# notes: as for B1
# B23: Z11711 (designed binder)
# chain: B1 chain with R18A, K19E, Y22R, D33N
# notes: as for B1
# B24: Z11723 (designed binder)
# chain: B1 chain with K19D, D33Q
# notes: as for B1
# B25: Z11781 (designed binder)
# chain: B1 chain with K19E, D33R
# notes: as for B1
# B26: Z11784 (designed binder)
# chain: B1 chain with K19E, Y22W, L26K, D33N
# notes: as for B1
# B27: Z11788 (designed binder)
# chain: B1 chain with K19R, V32I, D33Q
# notes: as for B1
# B28: Z11789 (designed binder)
# chain: B1 chain with R18A, K19E, Y22R, D33H
# notes: as for B1
# B29: Z11791 (designed binder)
# chain: B1 chain with K19D, Y22H, D33S
# notes: as for B1
# B30: Z11794 (designed binder)
# chain: B1 chain with K19R, L26T, D33Q
# notes: as for B1
# B31: Z11802 (designed binder)
# chain: B1 chain with Y22F, L26K, D33E
# notes: as for B1
# B32: Z11803 (designed binder)
# chain: B1 chain with R18H, K19H, Y22T, D33S, S40Q
# notes: as for B1
# B33: Z11805 (designed binder)
# chain: B1 chain with R18A, K19R, Y22F, L26A, D33Q, M35V
# notes: as for B1
# B34: Z11814 (designed binder)
# chain: B1 chain with R18A, Y22R, L26I, D33Q
# notes: as for B1
# B35: Z11815 (designed binder)
# chain: B1 chain with R18A, K19T, Y22H, L26T, D33H
# notes: as for B1
# B36: Z11817 (designed binder)
# chain: B1 chain with K19S, D33T
# notes: as for B1
# B37: Z11818 (designed binder)
# chain: B1 chain with K19A, Y22F, L26T, D33Q
# notes: as for B1
# B38: Z11819 (designed binder)
# chain: B1 chain with K19T, D33T
# notes: as for B1
# B39: Z11823 (designed binder)
# chain: B1 chain with Y22F, L26A, D33S
# notes: as for B1
# B40: Z11824 (designed binder)
# chain: B1 chain with R18H, K19R, Y22F, D33E
# notes: as for B1
# B41: Z11833 (designed binder)
# chain: B1 chain with K19A, L26I, D33Q, S40Q
# notes: as for B1
# B42: Z11835 (designed binder)
# chain: B1 chain with K19Q, D33S, M35I
# notes: as for B1
# B43: Z11836 (designed binder)
# chain: B1 chain with R18A, K19A, Y22R, D33Q
# notes: as for B1
# B44: Z11860 (designed binder)
# chain: B1 chain with K19E, Y22H, L26I, V32I, D33H
# notes: as for B1
# B45: Z11861 (designed binder)
# chain: B1 chain with R18A, K19Q, Y22L, M35I
# notes: as for B1
# B46: Z11862 (designed binder)
# chain: B1 chain with Y22F, L26A, D33T
# notes: as for B1
# B47: Z11865 (designed binder)
# chain: B1 chain with K19D, D33E
# notes: as for B1
# B48: Z11866 (designed binder)
# chain: B1 chain with R18A, K19A, V32I, D33S, M35I
# notes: as for B1
# B49: Z11871 (designed binder)
# chain: B1 chain with K19V, D33R
# notes: as for B1
# B50: Z11872 (designed binder)
# chain: B1 chain with R18H, K19H, L26I, D33S, M35I
# notes: as for B1
# B51: Z11874 (designed binder)
# chain: B1 chain with K19A, Y22F, L26A, D33E, M35V, S40I
# notes: as for B1
# B52: Z11875 (designed binder)
# chain: B1 chain with R18Q, K19E, L26V, D33T
# notes: as for B1
# B53: Z11881 (designed binder)
# chain: B1 chain with R18Q, K19Q, Y22T, L26T
# notes: as for B1
# B54: Z11882 (designed binder)
# chain: B1 chain with K19D, D33T
# notes: as for B1
# B55: Z11883 (designed binder)
# chain: B1 chain with K19D, V32I, D33S
# notes: as for B1
# B56: Z11890 (designed binder)
# chain: B1 chain with K19E, Y22H, L26I, D33E, M35I
# notes: as for B1
# B57: Z11892 (designed binder)
# chain: B1 chain with K19D, Y22W, L26A
# notes: as for B1
# B58: Z11893 (designed binder)
# chain: B1 chain with R18A, K19R, Y22H, L26V, D33S, S40Q
# notes: as for B1
# B59: Z11895 (designed binder)
# chain: B1 chain with R18A, K19Q, L26T, D33E, S40A
# notes: as for B1
# B60: Z11896 (designed binder)
# chain: B1 chain with K19S, Y22W, L26T, D33T
# notes: as for B1
# B61: Z11897 (designed binder)
# chain: B1 chain with R18A, K19D, Y22W, L26A, V32I
# notes: as for B1
# B62: Z11901 (designed binder)
# chain: B1 chain with R18A, K19E, S40I
# notes: as for B1
# Molecular target: T1, human IL-6 (human, UniProt P05231 30-212)
# T1 construct: recombinant, bought (Peprotech 200-06; R&D Systems 206-IL/CF); biotinylated in the ELISAs; also called hIL-6; rhIL-6
# Assay: ELISA, captured Z-ABD, biotin-hIL-6 titrated
row,Binder,EC50
1,B1,210 pM
2,B2,150 pM
3,B3,130 pM
4,B4,140 pM
5,B5,130 pM
6,B6,140 pM
7,B7,140 pM
8,B8,120 pM
9,B9,150 pM
10,B10,180 pM
11,B11,190 pM
12,B12,140 pM
13,B13,140 pM
14,B14,170 pM
15,B15,170 pM
16,B16,150 pM
17,B17,180 pM
18,B18,1200 pM
19,B19,230 pM
20,B20,240 pM
21,B21,260 pM

row,Binder,EC50
1,B22,200 pM
2,B23,350 pM
3,B24,250 pM
4,B25,290 pM
5,B26,270 pM
6,B27,250 pM
7,B28,240 pM
8,B29,340 pM
9,B30,220 pM
10,B31,260 pM
11,B32,280 pM
12,B33,340 pM
13,B34,250 pM
14,B35,280 pM
15,B36,250 pM
16,B37,240 pM
17,B38,250 pM
18,B39,210 pM
19,B40,230 pM
20,B41,290 pM
21,B42,290 pM

row,Binder,EC50
1,B43,360 pM
2,B44,180 pM
3,B45,220 pM
4,B46,190 pM
5,B47,230 pM
6,B48,250 pM
7,B49,170 pM
8,B50,280 pM
9,B51,310 pM
10,B52,210 pM
11,B53,170 pM
12,B54,140 pM
13,B55,210 pM
14,B56,190 pM
15,B57,230 pM
16,B58,200 pM
17,B59,280 pM
18,B60,290 pM
19,B61,300 pM
20,B62,170 pM

# — US20170129926A1 (ABCLON, published 2017)
